Data as given in publication PMC13132549.
These are yes or no findings as the source states them, for the method shown. Binding calls can cover weak binding; strength is not graded here.

Protein sequences, listed by entry. Tags and fused reporters are not part of them. Lines headed by an entry give the natural chain unless they say otherwise; changes in a name come on top. Residues count along the entry.
UniProt P48443: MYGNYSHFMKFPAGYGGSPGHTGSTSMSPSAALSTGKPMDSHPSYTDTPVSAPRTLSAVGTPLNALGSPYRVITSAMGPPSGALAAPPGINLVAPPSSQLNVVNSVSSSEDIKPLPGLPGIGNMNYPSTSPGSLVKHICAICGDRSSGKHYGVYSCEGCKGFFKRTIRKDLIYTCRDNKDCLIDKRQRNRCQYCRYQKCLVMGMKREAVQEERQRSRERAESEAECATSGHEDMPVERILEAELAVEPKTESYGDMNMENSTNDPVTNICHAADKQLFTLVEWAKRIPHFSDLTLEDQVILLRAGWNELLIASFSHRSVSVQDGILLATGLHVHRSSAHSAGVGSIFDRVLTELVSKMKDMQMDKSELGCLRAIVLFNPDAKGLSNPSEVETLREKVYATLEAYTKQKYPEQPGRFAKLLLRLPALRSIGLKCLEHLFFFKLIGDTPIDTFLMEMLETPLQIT
UniProt P22736, residues 356-598: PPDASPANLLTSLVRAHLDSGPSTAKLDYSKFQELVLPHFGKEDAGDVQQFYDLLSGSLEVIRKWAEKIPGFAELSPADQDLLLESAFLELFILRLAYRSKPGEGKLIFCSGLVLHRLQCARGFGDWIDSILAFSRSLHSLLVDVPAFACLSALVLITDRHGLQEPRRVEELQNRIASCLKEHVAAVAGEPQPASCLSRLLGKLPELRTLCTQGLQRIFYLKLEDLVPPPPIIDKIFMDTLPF

Tests used:
[1] = biological target: RXRγ (NR2B3) ligand-binding domain (LBD) (human) (UniProt P48443); assay: ITC; Nur77 LBD titrated into RXRγ LBD without ligand at 15 °C; both purified
[2] = biological target: RXRγ (NR2B3) ligand-binding domain (LBD) (human) (UniProt P48443); assay: SEC; Nur77 LBD and RXRγ LBD (each 700 µM) incubated 16 hr at 4 °C, heterodimer isolated on Superdex 75 and analysed on Superdex 75 Increase 10/300 GL with or without two molar equivalents of RXR ligand; 20 mM potassium phosphate pH 7.4, 50 mM KCl, 0.5 mM EDTA; both purified
[3] = biological target: RXRγ (NR2B3) ligand-binding domain (LBD) (human) (UniProt P48443); assay: AlphaScreen or HTRF; TR-FRET: 4 nM 6xHis-RXRγ LBD, 1 nM Tb-anti-His antibody, 400 nM FITC-PGC1α peptide, DMSO or RXR ligand; 20 mM potassium phosphate pH 7.4, 50 mM KCl, 5 mM TCEP, 0.005% Tween 20; 4 °C; both purified

Nur77 (NR4A1) ligand-binding domain (LBD) (from UniProt P22736 356-598) (domain or fragment)
binding [1]: binds | binding [2]: binds

EAEEPSLLKKLLLAPANTQ (N-terminal FITC label; amidated C-terminus) [FITC-labeled LXXLL-containing peptide derived from human PGC-1α (137-155)]
binding [3]: binds
